According to US20250302875A1 (AVENCELL EUROPE, published 2025):
These are yes or no findings as the source states them, for the method shown. Some results given as binding are weak or reduced against the parent protein; the word gives no strength.

The chains behind the UniProt entries cited, without tags or fusion partners. Where a name states a change or a piece, a line headed by the entry shows the natural chain unless it says otherwise.
UniProt P35225: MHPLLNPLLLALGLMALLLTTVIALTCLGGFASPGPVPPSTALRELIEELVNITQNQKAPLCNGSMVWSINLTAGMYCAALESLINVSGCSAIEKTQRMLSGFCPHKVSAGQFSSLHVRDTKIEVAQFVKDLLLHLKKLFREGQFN

Molecular target: T1, IL13Rα1 on recombinant K562-IL13Rα1 cell line (UniProt P78552)
T1 sequence (looked up): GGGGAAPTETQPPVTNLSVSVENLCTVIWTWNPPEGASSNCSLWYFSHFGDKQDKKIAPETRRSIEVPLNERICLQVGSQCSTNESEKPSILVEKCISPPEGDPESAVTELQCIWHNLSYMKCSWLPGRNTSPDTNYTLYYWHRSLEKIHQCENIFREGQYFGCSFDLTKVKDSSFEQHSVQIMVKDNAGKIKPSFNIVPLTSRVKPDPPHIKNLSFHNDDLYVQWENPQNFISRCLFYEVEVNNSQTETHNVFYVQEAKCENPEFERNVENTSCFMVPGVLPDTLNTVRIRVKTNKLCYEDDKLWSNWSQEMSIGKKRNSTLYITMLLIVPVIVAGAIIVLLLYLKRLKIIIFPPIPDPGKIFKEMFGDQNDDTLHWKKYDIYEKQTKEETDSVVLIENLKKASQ
Experiment: flow cytometry cellular binding assay on recombinant K562-IL13Rα1 cells, two-step immunostaining (anti-His-tag-PE), absolute MFI against TM concentration

binding: binds
Substance: targeting module comprising IL13wt (from UniProt P35225 35-146) (ligand)
